Laboratory results as given in PubChem BioAssay AID1439 (NMMLSC, 2008).
Hit rate of the full screen: of about 220,000 compounds, about 770 (0.35%) were called active. The inconclusive results got no clear call from the source; some entries with a clear call stand among them for comparison. No stated cut-off is given here; in the data, active means binding response below about 49% or above about 150%; inconclusive means no clear call, values can overlap the other calls; inactive means in between.

By UniProt entry, the sequences of proteins in these tests, tags left out.
UniProt P09471, whole entry, looked up: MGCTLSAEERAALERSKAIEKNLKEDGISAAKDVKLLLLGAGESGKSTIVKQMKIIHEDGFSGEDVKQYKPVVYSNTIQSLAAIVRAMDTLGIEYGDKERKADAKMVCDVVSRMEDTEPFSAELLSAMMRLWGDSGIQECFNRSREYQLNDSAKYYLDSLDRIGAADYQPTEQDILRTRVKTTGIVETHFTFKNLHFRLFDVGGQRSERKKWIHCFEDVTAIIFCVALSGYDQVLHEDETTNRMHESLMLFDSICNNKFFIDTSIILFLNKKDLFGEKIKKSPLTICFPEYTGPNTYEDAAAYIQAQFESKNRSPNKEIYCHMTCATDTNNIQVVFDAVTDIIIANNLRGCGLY

What follows are compounds tested against Guanine nucleotide-binding protein G(o) subunit alpha (Homo sapiens) (UniProt P09471) (assay: RGS7-Galphao binding modulators, primary screen, biochemical, multiplexed bead flow cytometry (AID 1439;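 further: fluorescent Galphao held in activated GDP-AlF4 state binding bead-coupled RGS7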)). Conditions: at 10 µM, actives lie on both sides.

| SMILES | binding response (% of control) |
| --- | --- |
| NC(=O)c1sc2nc3c(cc2c1N)CCCCCC3 | inconclusive: 114% |
| COc1cc(N2CCCC2)c(OC)cc1/C=C(/C#N)c1ccc(Br)cc1 | inactive: 129% |
| O=C(c1ccc([N+](=O)[O-])cc1)N1CCCC1 | inconclusive: 155% |
| O=C(Cc1cccc2ccccc12)N1CCN(c2ncccn2)CC1 | inconclusive: 103% |
| O=C(N/N=C/c1ccc(N2CCOCC2)cc1)c1ccccc1NS(=O)(=O)c1cccs1 | inconclusive: 86.8% |
| C/C(Cc1ccccc1)=N\NC(=O)CNC(=O)COc1ccccc1 | inconclusive: -173% |
| Cn1nc(-c2ccccn2)nc2c(=O)n(C)c(=O)nc1-2 | inconclusive: 49.4% |
| COCCNC(=O)C(OC(=O)C1=Cc2ccccc2OC1)C(C)C (stereo unspecified) | inactive: 102% |
| CCCCNC(=O)c1cnc2n(c1=O)CCS2 | inactive: 103% |
| CCOCCCNC(=S)Nc1ccc(Br)cc1Cl | inconclusive: 122% |
| Cc1ccc(-c2nnn(CC(=O)N(CCO)C(C(=O)NC3CCCCC3)c3ccncc3)n2)o1 (stereo unspecified) | inconclusive: 94.2% |
| N#C/C(=C(/O)c1ccc(C(=O)c2ccccc2)cc1)c1nc2ccccc2[nH]1 | inconclusive: 54.4% |
| CC(=O)NC1CCCN(O)C(=O)/C=C(\C)CCOC(=O)C(NC(C)=O)CCCN(O)C(=O)/C=C(\C)CCOC(=O)C(NC(C)=O)CCCN(O)C(=O)/C=C(\C)CCOC1=O (stereo unspecified) | inactive: 91.9% |
| Cc1ccc(CSCCNC(=O)CSc2ccccc2)cc1 | inactive: 101% |
| S=C1Cc2ccccc2N1 | inconclusive: 82.6% |
| CN(C)CCSc1nc(O)c(-c2ccccc2)c(=O)n1-c1ccccc1 | inconclusive: 134% |
| COC(=O)CSC1=C(C#N)C(c2ccccc2F)CC(=O)N1 (stereo unspecified) | inconclusive: 61.8% |
| CC(C)(C)OC(=O)N1CCC[C@H]1c1nnc(SCC(=O)Nc2cccc(Cl)c2)o1 | inconclusive: 67.6% |
| CC(=O)Nc1ccc(NC(=O)Nc2cc(C)cc(C)c2)cc1 | inconclusive: 92.5% |
| COC(=O)C1=C(C(=O)OC)[C@@H]2N(Cc3ccccc3)c3ccccc3[C@@]23C[C@@H](C(=O)OC)N(C(=O)c2cccs2)C3=N1 | inconclusive: 88.3% |
| Cc1ccc(NC(=O)C(=O)NN)cc1 | inconclusive: -34.6% |
| NC(=O)N[C@@H](Cc1c[nH]c2ccccc12)C(=O)OCC(=O)N1CCCCC1 | inconclusive: 106% |

Some of these compounds in order of heavy-atom count, low to high.

| SMILES | binding response (% of control) |
| --- | --- |
| S=C1Cc2ccccc2N1 | inconclusive: 82.6% |
| O=C(Cc1cccc2ccccc12)N1CCN(c2ncccn2)CC1 | inconclusive: 103% |
| NC(=O)N[C@@H](Cc1c[nH]c2ccccc12)C(=O)OCC(=O)N1CCCCC1 | inconclusive: 106% |
| N#C/C(=C(/O)c1ccc(C(=O)c2ccccc2)cc1)c1nc2ccccc2[nH]1 | inconclusive: 54.4% |
| CC(C)(C)OC(=O)N1CCC[C@H]1c1nnc(SCC(=O)Nc2cccc(Cl)c2)o1 | inconclusive: 67.6% |
| CC(=O)NC1CCCN(O)C(=O)/C=C(\C)CCOC(=O)C(NC(C)=O)CCCN(O)C(=O)/C=C(\C)CCOC(=O)C(NC(C)=O)CCCN(O)C(=O)/C=C(\C)CCOC1=O (stereo unspecified) | inactive: 91.9% |

(further entries)

| SMILES | binding response (% of control) |
| --- | --- |
| O=C(O)c1ccc(N2CCCCC2)cc1O | inconclusive: 96.9% |
| Cn1c(CNC(=O)OC(C)(C)C)nnc1SCc1c(Cl)cccc1Cl | inconclusive: 88% |
| CCc1ccc(N2CN(Cc3cccnc3)CNC2=S)cc1 | inconclusive: 120% |
| CCN(C(=O)CSc1ncccc1C(=O)O)C1CCCCC1 | inconclusive: 112% |
| COc1cc(C)ccc1OCCOCCOc1ccccc1[N+](=O)[O-] | inactive: 94.9% |
| CCCCCCN(C(=O)CCCCCN1C(=O)NC(c2ccc(-c3ccccc3)cc2)C(C(=O)OCc2ccccc2)=C1C)C(C(=O)NCCCC)c1ccccn1 (stereo unspecified) | inconclusive: 110% |
| CN1C(=O)C(CC(=O)Nc2ccc(F)cc2)N(Cc2cccs2)C1=S (stereo unspecified) | inconclusive: 125% |
| CSc1ccccc1C(=O)Nc1cc([N+](=O)[O-])ccc1C | inconclusive: 64.5% |
| COc1ccc(S(=O)(=O)Nc2nncs2)cc1 | inactive: 109% |
| C#CCOCCOCCOCCNc1nc(N2CCN(C(=O)[C@H]([C@@H](C)CC)n3cc([C@@H](N)CO)nn3)CC2)nc(N2CCN(C(=O)[C@H]([C@@H](C)CC)n3cc([C@@H](N)CO)nn3)CC2)n1 | inconclusive: 108% |
| COC(=O)[C@@H]1C[C@@]2(O)[C@H](O)[C@H](O)[C@H](O)C[C@H]2N1Cc1ccccc1OS(=O)(=O)c1ccc(C)cc1 | inconclusive: 110% |
| O=[N+]([O-])c1ccc(OCc2nnc(-c3ccccc3)o2)cc1 | inconclusive: 97.3% |
| NC(CO)(CO)COCc1ccccc1 | inconclusive: 72% |
| O=C(CC(c1ccccc1)c1ccco1)N1CCCCC1 (stereo unspecified) | inconclusive: 90% |
| Cc1ccc(S(=O)(=O)N2CCCCC2)cc1NC(=O)Cn1ccsc1=N | inconclusive: 99.1% |
| CN(CC(=O)NCc1ccncc1)S(=O)(=O)c1ccc(Cl)cc1 | inactive: 102% |
| COCCCNC(=S)N/N=C/c1ccc(O)cc1 | inconclusive: 117% |
| CCOc1ccccc1NC(=O)COC(=O)C1CC1 | inactive: 99.3% |
| CN(NS(=O)(=O)c1ccc(Br)cc1)c1nc(C(F)(F)F)nc2ccccc12 | inactive: 98.8% |
| COCCNC(=O)Cn1nc(-c2ccccc2OC)ccc1=O | inactive: 133% |
| C/C=C/C(=O)Nc1cccc(C2=NOC3(C2)C[C@@H](C(N)=O)N(C(=O)C(c2ccccc2)c2ccccc2)C3)c1 (stereo partly specified) | inconclusive: 113% |
| COc1ccc(C2=NOC(CNC(=S)N3CCOCC3)C2)cc1 (stereo unspecified) | inconclusive: 407% |

| SMILES | binding response (% of control) |
| --- | --- |
| Cc1ccc(NC(=O)CN2C(=O)N/C(=C\c3cccn3-c3cccc(C(=O)O)c3)C2=O)cc1 | inconclusive: 78.8% |
| O=S(=O)(c1ccc(Br)s1)N1CCNCC1 | inconclusive: 80.8% |
| CCn1cc(C(=O)O)c(=O)c2cnc(N3CCN(C(=S)Nc4ccccc4C(F)(F)F)CC3)nc21 | inconclusive: 68.8% |
| Cc1noc(C)c1S(=O)(=O)Nc1ccccc1OC(F)(F)F | inconclusive: 96.7% |
| O=C(O)c1ccccc1C(=O)c1ccc(Cl)cc1 | inconclusive: 79.5% |
| NS(=O)(=O)c1ccc(NC(=O)COC(=O)c2ccc([N+](=O)[O-])s2)cc1 | inconclusive: 58.1% |
| O=c1[nH]c2cccnc2n1-c1ccc([N+](=O)[O-])cc1 | inconclusive: -38.3% |
| Cc1ccc(-c2cc(C(=O)N3CCCc4ccccc43)c3ccccc3n2)cc1 | inactive: 101% |
| CCn1c(O)c(/C=N/N=C2CCCCC2)c2cc(C3=NNC(=O)CC3)ccc21 | inconclusive: 103% |
| NC1=NC[C@H](c2ccccc2)N1CCc1cccc(F)c1 | inconclusive: 107% |
| CCCc1nnc(NC(=O)c2cccnc2)s1 | inconclusive: 58.6% |
| COc1ccc(/C=N/NC(=O)c2ccc3nc[nH]c3c2)c(OC)c1OC | inconclusive: 79.2% |
| CCCC(=O)Nc1ccc(-c2csc(N/N=C\c3ccncc3)n2)cc1 | inconclusive: 73.7% |
| O=C(CC1C(=O)NCCN1C/C=C/c1ccccc1)NCCc1ccncc1 (stereo unspecified) | inconclusive: 116% |
| COc1ccc(NC(=O)Nc2ccc3nonc3c2)cc1 | inconclusive: 80% |
| Cc1nc2sc3c(c2c(=N)n1N)CCCC3 | inconclusive: 81.4% |
| CCOc1ccc(Nc2cc(Nc3ccccc3OCC)nc(C=C(C#N)C#N)n2)cc1 | inconclusive: 110% |
| Cc1c(C(=O)NCCN2C(=O)S/C(=C\c3cccnc3)C2=O)cccc1[N+](=O)[O-] | inconclusive: 135% |
| CC(C)NC(=O)CSc1nc(N)c(NC(=O)c2ccco2)c(=O)[nH]1 | inconclusive: 87.7% |
| Cc1cc(-c2ccccc2)nc(SC(C(=O)O)c2ccccc2)n1 (stereo unspecified) | inconclusive: 104% |
| COc1ccc(-c2ocnc2C(=O)N2CCN(Cc3cccnc3)CC2)cc1 | inconclusive: 80.9% |
| Cc1c(Cc2ccc3c(c2)OCO3)sc(NC(=O)c2ccc3ccccc3c2)c1C(N)=O | active: 34.8% |

| SMILES | binding response (% of control) |
| --- | --- |
| O=C(Nc1ccccc1)Oc1ccc[nH]c1=O | inconclusive: 92.5% |
| Cc1cc(=S)[nH]c(=S)[nH]1 | inconclusive: 106% |
| CCOC(=O)c1ccc(NC(=O)N2CCN(c3cccc(OC)c3)CC2)cc1 | inconclusive: 115% |
| O=C1/C(=C\c2ccc(O)cc2)SC(=S)N1/N=C/c1ccc(O)cc1 | inconclusive: 99.8% |
| COC(=O)c1ccc([C@H]2C=C(C(=O)O)O[C@@H](OCc3ccc(CO)cc3)C2)cc1 | inconclusive: 111% |
| S=C(Nc1cccnc1)Nc1cccc2cnccc12 | inconclusive: 86.1% |
| O=C(Cn1cnc2cc([N+](=O)[O-])ccc2c1=O)Nc1cccc2ccccc12 | inconclusive: 141% |
| CCS(=O)(=O)Nc1cccc(C2=NN(S(=O)(=O)c3ccc(C)cc3)C(c3ccco3)C2)c1 (stereo unspecified) | inactive: 105% |
| Cc1cccc(C)c1NC(=S)NC(C)(C)CO | inconclusive: 86.4% |
| CCCCCC1CC(CC/C(C)=N/NC(N)=O)C(=O)O1 (stereo unspecified) | inconclusive: 105% |
| COC(=O)c1cc(OC)c(OC)cc1NC(=O)c1ccccc1C | inconclusive: 94.9% |
| C#CCOCCOCCOCCNc1nc(N2CCN(C(=O)[C@H]([C@@H](C)CC)n3cc([C@@H](N)CO)nn3)CC2)nc(N2CCN(C(=O)[C@H]([C@@H](C)CC)n3cc([C@@H](N)Cc4ccc(O)cc4)nn3)CC2)n1 | active: 18.1% |
| N#Cc1c(-c2ccccc2)nc(-c2ccncc2)[nH]c1=O | inconclusive: 94.7% |
| CC(C)(C)OC(=O)[C@H](Cc1ccccc1)NC(=O)c1nc[nH]c1C(=O)N[C@@H](Cc1ccccc1)C(=O)OC(C)(C)C | inconclusive: 80.2% |
| CCN(CC)Cc1c(O)ccc2c(=O)c(Oc3ccccc3OC)c(C)oc12 | inconclusive: 105% |
| S=C(Nc1ccccc1)Nc1nccs1 | inconclusive: 90.7% |
| CC[C@@H](C)[C@H](NC(=O)OCc1ccccc1)c1nnc([C@@H](NC(=O)OCc2ccccc2)[C@@H](C)CC)o1 | inconclusive: 75.5% |
| Cc1nn(CC(=O)NCc2ccco2)c(C)c1[N+](=O)[O-] | inconclusive: 122% |
| N#Cc1c(C(F)(F)F)cc(=O)[nH]c1SCC(=O)O | inconclusive: 95.5% |
| CN(C)CCCn1c(N)c(S(=O)(=O)c2ccccc2)c2nc3ccccc3nc21 | inconclusive: 168% |
